# Results taken from PubChem BioAssay (EPA / NIEHS).
# Amino acid sequences for entries named in this document (tags omitted). A change or cut given only in a name is not applied to a line headed by its entry.
# UniProt P37231: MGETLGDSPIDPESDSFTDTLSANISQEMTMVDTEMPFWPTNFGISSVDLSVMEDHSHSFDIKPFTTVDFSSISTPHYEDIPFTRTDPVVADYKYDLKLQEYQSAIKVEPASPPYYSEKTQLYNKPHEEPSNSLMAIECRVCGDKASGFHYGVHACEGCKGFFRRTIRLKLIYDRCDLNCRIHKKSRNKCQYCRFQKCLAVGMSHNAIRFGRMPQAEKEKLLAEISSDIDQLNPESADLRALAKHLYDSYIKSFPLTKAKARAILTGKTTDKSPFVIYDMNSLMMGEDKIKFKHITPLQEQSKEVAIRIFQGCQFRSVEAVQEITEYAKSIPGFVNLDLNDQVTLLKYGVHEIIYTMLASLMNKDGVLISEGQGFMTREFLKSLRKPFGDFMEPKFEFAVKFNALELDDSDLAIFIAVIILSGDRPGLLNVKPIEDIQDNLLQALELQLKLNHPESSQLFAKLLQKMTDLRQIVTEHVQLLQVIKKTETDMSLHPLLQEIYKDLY
# Values joined by “and” are separate entries in the source; they are usually repeats but may differ in a detail not shown here. Equal entries are not always repeated. Inconclusive results, whose numbers are uncertain, are shown with a selection of clear calls. Potencies beside an inconclusive call are fits to weak or partial responses and may not hold up. Where a structure was tested more than once in an assay, its records may differ in their call. Active and inactive are the calls of the source. Rule for the calls: active = hit-call score of the fitted dose curve at least 0.9, where 1 is the maximum; inconclusive = response in the unintended direction; inactive = score below 0.9.
# Biological target: Peroxisome proliferator-activated receptor gamma (Homo sapiens) (UniProt P37231)
# Experiment: OT_PPARg_PPARgSRC1_0480: Odyssey Thera (OT) 8-hour Protein-Complementation Assay for Peroxisome Proliferator-activated Receptor Gamma / SRC-1 Co-activator (AID 2283387);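 note: nuclear to cytoplasmic split Venus YFP fluorescence ratio reporting PPARg SRC-1 interaction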
# Experimental: OT_PPARg_PPARgSRC1_0480 is a cell-based assay that uses HEK293T, a human kidney cell line, with measurements taken at 8 hours after chemical dosing in a 384-well plate.OT_PPARg_PPARgSRC1_0480 is one of one assay component(s) measured or calculated from the OT_PPARg_PPARgSRC1_0480 assay. It is designed to make measurements of protein fragment complementation, a form of binding reporter, as detected with fluorescence intensity signals by Protein-fragment Complementation technology.Data from the assay component OT_PPARg_PPARgSRC1_0480 was analyzed into 1 assay endpoint. This assay endpoint, OT_PPARg_PPARgSRC1_0480, was analyzed in the positive analysis fitting direction relative to DMSO as the negative control and baseline of activity. Using a type of binding reporter, measures of receptor for gain-of-signal activity can be used to understand the binding at the pathway-level as they relate to the gene PPARG. Furthermore, this assay endpoint can be referred to as a primary readout, because the performed assay has only produced 1 assay endpoint. To generalize the intended target to other relatable targets, this assay endpoint is annotated to the nuclear receptor intended target family, where the subfamily is non-steroidal.
# The OT PPARg/SRC-1 assay assessed receptor-chemical interactions using a rapidly maturing, intensely fluorescent mutant of YFP known as Venus, rationally dissected into two separate fragments. The fragments were obtained as follows: first, fragments coding for YFP1 and YFP2 (corresponding to amino acid residues 1-158 and 159-239 of the full length YFP, respectively) were generated by oligonucleotide synthesis (Blue Heron Biotechnology), and then PCR mutagenesis was used to generate the mutant fragments IFP1 and IFP2. Fusion constructs were transfected into HEK293T cells with a (Gly4Ser)2 linker between the PPARg/SRC-1 and YFP fragment genes to facilitate complementation when interacting proteins bring fragments into close proximity. The construct is transiently transfected in HEK293T cells 48 hours prior to treatment with test compounds. Cells are seeded into optical quality 384-well poly-D-lysine coated plates in MEM alpha medium (Invitrogen) supplemented with 10 percent FBS (Gemini Bio-Products) 1 percent penicillin and 1 percent streptomycin, and grown in 37C incubator equilibrated to 5 percent CO2. Cells are allowed to adhere for 24 hours prior to treatment with compounds of interest or controls for 8 hours. Cells are fixed in 4 percent formaldehyde and stained with Draq5 (BioStatus) to identify cells and subcellular compartment boundaries prior to signal detection. 8 Images per well were acquired on an Evotec Opera at 2 wavelengths (488 and 635nm), and the ratio of fluorescence in the nucleus relative to fluorescence in the cytoplasm (N/C Ratio) in the 488nm channel was calculated for a minimum of 350 cells per image.
Compound,AC50,outcome
CCN(C(=O)c1cc(C)cc(OC[C@H](C)Nc2ccncc2)c1)C(C)C,inconclusive: 33.8 µM,–
CN1C(=O)N(c2ccccc2Br)Cc2cnc(Nc3ccc4c(c3)OCC(CO)O4)nc21 (stereo not given),inconclusive: 50 µM,–
COC(=O)[C@H]1[C@H]2C[C@@H]3c4[nH]c5cc(OC)ccc5c4CCN3C[C@H]2C[C@@H](OC(=O)c2cc(OC)c(OC)c(OC)c2)[C@@H]1OC,active: 11.4 µM and active: 58 µM,–
CCCCCCOc1ccc(N)cc1,–,inactive
COC(=O)C1CCC(C(=O)OC)CC1 (stereo not given),inconclusive: 50 µM,–
C=CC(C)(O)CCC=C(C)CCC=C(C)C (stereo not given),inconclusive: 74.4 µM,–
CC1=CC(=O)CC(C)(C)C1,inconclusive: 50 µM,–
CCCN(CCC)c1c([N+](=O)[O-])cc(C(F)(F)F)c(N)c1[N+](=O)[O-],inconclusive: 50 µM,–
Cc1ncc([C@@H](CCCCCCc2ccc3c(n2)NCCC3)CC(=O)O)cn1,active: 12.4 µM,–
CCCCC(CC)COC(=O)c1ccc(C(=O)OCC(CC)CCCC)cc1 (stereo not given),–,inactive
CCC(C)(O)CCCC(C)C (stereo not given),inconclusive: 50 µM,–
NC(=O)N(O)[C@@H]1C=C[C@H](Oc2cccc(Oc3ccc(F)cc3)c2)C1,inconclusive: 50 µM,–
O=c1c(-c2ccc(O)cc2)coc2cc(O)cc(O)c12,inconclusive: 50 µM,–
CCCCC/C=C\C/C=C\CCCCCCCC(=O)O,active: 12.7 µM,–
CCc1ccc(O)c(C(C)(C)C)c1,inconclusive: 50 µM,–
CN(C)Cc1ccccc1O,inconclusive: 50 µM,–
CCOc1ccc(N=Nc2ccc(C=Cc3ccc(N=Nc4ccc(OCC)cc4)cc3S(=O)(=O)O)c(S(=O)(=O)O)c2)cc1,–,inactive
CC(Cc1ccc(O)c(O)c1)C(C)Cc1ccc(O)c(O)c1 (stereo not given),inconclusive: 70.1 µM,–
CCCCCCOC(=O)c1ccccc1O,inconclusive: 93.5 µM,–
CCc1cc(SCc2sc(-c3ccc(C(F)(F)F)cc3)nc2CN2CCN(c3ccc(OC)cc3)CC2)ccc1OCC(=O)O,active: 345 nM and active: 1.09 µM,–
BrCc1cccc(Oc2ccccc2)c1,inconclusive: 50 µM,–
O=C(O)c1ccccc1O,–,inactive
C1=CC2C3C=CC(C3)C2C1 (stereo not given),inconclusive: 49.2 µM,–
CC/C(=C(\c1ccccc1)c1ccc(OCCN(C)C)cc1)c1ccccc1,inconclusive: 50 µM,–
CCCCC(CC)COP(=O)(O)OCC(CC)CCCC (stereo not given),active: 64.4 µM,–

# Look-ups from the list:
# AC50 with CCN(C(=O)c1cc(C)cc(OC[C@H](C)Nc2ccncc2)c1)C(C)C is entered as inconclusive: 33.8 µM
# AC50 with CCCCC/C=C\C/C=C\CCCCCCCC(=O)O is entered as active: 12.7 µM
